# Reference: PubChem BioAssay AID1259254 (NCATS, 2017)
# Screen: 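Finding genes that stop cells copying their DNA twice in one cycle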 (primary screen)
# Cell system: human HCT116 colorectal cancer cells
# Reagent: single siRNA against human genes
# Time to read-out: 3 days
# Measurement: 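Nuclei stained with Hoechst and imaged; cell-cycle phase assigned by DNA content; G2 share scaled per plate, non-targeting siRNA 0%, GMNN siRNA 100%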
# Direction: G2 robust z-score and G2 cells, % of GMNN control: higher = more G2 cells, more excess DNA replication; raw share of cells in G2: higher = larger share of cells with G2 DNA content
# Call rule: 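An siRNA counts as active if its G2 robust z-score lies at least 5 MADs above the screen median; here such calls match roughly 38% of GMNN control or more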
# Shown is an unselected part of about 59,000 reagents. Over the whole deposit, about 1,550 (2.6%) were called active. 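G2 share is only a proxy for re-replication; each gene was hit by three separate siRNAs, and active genes were retested.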 Raw values are not corrected between plates. Reagents against one gene are numbered here. Reagent sequences are not shown. Not stated in the record: the amount of reagent.
The first 2 records as a preview:
target,reagent,G2 robust z-score,"G2 cells, % of GMNN control",raw share of cells in G2 (%),call
BOLA1,1,-0.275,1.03,4.25,inactive
BOLA1,2,-0.181,1.69,5.19,inactive

The list itself, from the first entry:
target,reagent,G2 robust z-score,"G2 cells, % of GMNN control",raw share of cells in G2 (%),call
BOLA1,1,-0.275,1.03,4.25,inactive
BOLA1,2,-0.181,1.69,5.19,inactive
BOLA1,3,-0.597,-1.24,2.86,inactive
USP42,1,-0.788,-2.58,4.51,inactive
USP42,2,-1.49,-7.54,1.99,inactive
USP42,3,-0.166,1.8,4.93,inactive
RAPGEF1,1,1.5,13.5,10.1,inactive
RAPGEF1,2,9.6,70.5,32.1,active
RAPGEF1,3,2.45,20.2,10.9,inactive
HESX1,1,-1.11,-4.87,3.55,inactive
HESX1,2,-0.839,-2.93,3.2,inactive
HESX1,3,0.914,9.4,8.07,inactive
TPTE,1,-1.32,-6.29,2.75,inactive
TPTE,2,-1.69,-8.95,1.61,inactive
TPTE,3,0.218,4.5,4.85,inactive
FIBP,1,-1.05,-4.42,3.17,inactive
FIBP,2,-0.606,-1.29,3.38,inactive
FIBP,3,-0.673,-1.77,2.72,inactive
MSL1,1,1.06,10.4,7.56,inactive
MSL1,2,0.238,4.64,5.29,inactive
MSL1,3,-0.875,-3.19,2.91,inactive
PCDHA5,1,0.48,6.34,6.98,inactive
PCDHA5,2,-0.562,-0.985,6,inactive
PCDHA5,3,-0.134,2.03,5.17,inactive
SRARP,1,-0.225,1.39,4.29,inactive
SRARP,2,0.586,7.09,5.1,inactive
SRARP,3,0.215,4.48,4.63,inactive
TBX2,1,-0.478,-0.395,4.53,inactive
TBX2,2,-1.13,-5.01,2.48,inactive
TBX2,3,5.67,42.8,19.7,active
TMEM95,1,0.433,6.02,6.61,inactive
TMEM95,2,0.312,5.16,5.76,inactive
TMEM95,3,-0.63,-1.47,2.62,inactive
TMEM79,1,-0.24,1.28,2.79,inactive
TMEM79,2,-0.57,-1.04,3.76,inactive
TMEM79,3,-1.08,-4.66,2.07,inactive
CLCF1,1,0.174,4.19,5.99,inactive
CLCF1,2,-0.462,-0.28,3.82,inactive
CLCF1,3,0.0221,3.12,4.39,inactive
HOXC4,1,0.294,5.04,6.88,inactive
HOXC4,2,1.58,14.1,11,inactive
HOXC4,3,-0.741,-2.25,3.38,inactive
BRAP,1,3.11,24.8,14,inactive
BRAP,2,-0.107,2.22,5.54,inactive
BRAP,3,-0.251,1.2,5.14,inactive
TLX1NB,1,-1.06,-4.48,2.57,inactive
TLX1NB,2,3.68,28.8,13.2,inactive
TLX1NB,3,1.59,14.2,8.78,inactive
HERC3,1,-0.764,-2.41,4.42,inactive
HERC3,2,-0.51,-0.624,4.25,inactive
HERC3,3,2.1,17.7,11.1,inactive
LINC02693,1,-1.23,-5.7,2.03,inactive
LINC02693,2,-0.0138,2.87,4.51,inactive
LINC02693,3,-0.872,-3.16,2.91,inactive
VPS29,1,-0.525,-0.728,5.62,inactive
VPS29,2,2.05,17.4,10.5,inactive
VPS29,3,0.741,8.18,7.27,inactive
KANSL3,1,-0.591,-1.19,4.07,inactive
KANSL3,2,1.58,14.1,9.96,inactive
KANSL3,3,-0.3,0.858,3.41,inactive
TMEM38B,1,-0.311,0.777,4.82,inactive
TMEM38B,2,0.353,5.45,6.4,inactive
TMEM38B,3,-0.58,-1.11,2.78,inactive
RRBP1,1,-0.303,0.832,5.26,inactive
RRBP1,2,2.71,22,13.1,inactive
RRBP1,3,-0.184,1.67,4.7,inactive
DHRS13,1,0.441,6.07,6.92,inactive
DHRS13,2,-0.873,-3.17,3.37,inactive
DHRS13,3,0.827,8.79,10.1,inactive
OARD1,1,1.56,14,8.64,inactive
OARD1,2,0.185,4.27,4.59,inactive
OARD1,3,0.526,6.67,5.32,inactive
XPO7,1,-0.674,-1.77,3.26,inactive
XPO7,2,-0.302,0.843,4.44,inactive
XPO7,3,-1.06,-4.47,4.57,inactive
IFT140,1,-1.31,-6.25,2.84,inactive
IFT140,2,4.9,37.5,20,inactive
IFT140,3,0.358,5.49,5.07,inactive
ATP6V0E2,1,0.939,9.57,7.03,inactive
ATP6V0E2,2,1.71,15,7.98,inactive
ATP6V0E2,3,-0.482,-0.425,2.63,inactive
PAPPA2,1,0.135,3.92,7.25,inactive
PAPPA2,2,-0.369,0.374,4.6,inactive
PAPPA2,3,1.37,12.6,8.95,inactive
CCDC47,1,0.896,9.27,8,inactive
CCDC47,2,2.22,18.6,13.3,inactive
CCDC47,3,-0.201,1.56,3.52,inactive
